Laboratory results: patent publication US20240018247A1 (MUSC FOUNDATION FOR RESEARCH DEVELOPMENT, published 2024)
Results are given in words; binding and its absence hold for the method and conditions named. Some binding calls cover weakened binding; strength is not graded here. Where a sequence is shown, tags or fusion partners need not be part of it.

Target: T1, recombinant mouse P-selectin-Ig (BD Biosciences) (mouse) (UniProt Q01102)
T1 sequence (looked up): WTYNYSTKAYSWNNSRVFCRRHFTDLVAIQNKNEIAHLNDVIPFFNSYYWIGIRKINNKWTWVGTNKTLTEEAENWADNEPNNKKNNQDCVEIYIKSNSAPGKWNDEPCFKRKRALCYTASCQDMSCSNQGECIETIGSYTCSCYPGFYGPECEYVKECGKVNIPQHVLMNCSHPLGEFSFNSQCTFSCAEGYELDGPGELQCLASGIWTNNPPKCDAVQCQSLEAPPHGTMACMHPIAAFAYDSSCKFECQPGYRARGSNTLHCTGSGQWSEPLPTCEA
Experiment: ELISA, mouse P-selectin-Ig as capture antigen, anti-His tag detection

B1: NB.PSelscFv-Crry (anti-pselectin 2.3scFv-Crry, non-blocking) (scFv)
chain: QIQLVLSGPELKKPGESVKISCKASGYTFTTYGMSWVKQAPGKGLKWMGWINTSSGVPTYADDFKGRFAFSLETSASTAYLQINNLKNEDTATYFCARGGGYYGAYYFYYWGQGTTLTVSSGGGGSGGGGSGGGGSDIQMTQSPASLSASVGETVTITCRTSDNINSYLAWYLQRQGKSPQLLVYNAKTLTEGVPSRFSGSGSGTQFSLKINSLQPEDFGSYYCQHHYGPPPTFGGGTKLEIKGGGGSGGGGSCPAPSQLPSAKPINLTDESMFPIGTYLLYECLPGYIKRQFSITCKQDSTWTSAEDKCIRKQCKTPSDPENGLVHVHTGIQFGSRINYTCNQGYRLIGSSSAVCVITDQSVDWDTEAPICEWIPCEIPPGIPNGDFFSSTREDFHYGMVVTYRCNTDARGKALFNLVGEPSLYCTSNDGEIGVWSGPPPQCIELNKCTPPPYVENAVMLSENRSLFSLRDIVEFRCHPGFIMKGASSVHCQSLNKWEPELPSCFKGVICRLPQEMSGFQKGLGMKKEYYYGENVTLECEDGYTLEGSSQSQCQSDGSWNPLLAKCVSRSIIEGRHHHHHH
notes: also called Psel.NB; Psel-NB
  binding: binds
